PubChem BioAssay AID445 (National Center for Advancing Translational Sciences (NCATS), 2006)
The list shows a part of the results. Further columns of the screen follow, without active or inactive calls. Most of these compounds were active or inconclusive in the main read-out, so they are no random draw. The note in brackets gives the kind of curve behind each potency; many fits are weak.

Test: IkB Signaling
Conditions: ABC-DLBCL IkBa-CBG/CBR dual luciferase ratio (green luciferase fused to IkBa over red control in OCI-Ly3 lymphoma cells), 4 h
Outline: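 Curves were fitted separately to fusion (green), unfused (red) and ratio luminescence, then classed by r2, magnitude and activity. Cells: OCI-Ly3, 4 h compound plus doxycycline at 37C; 10 uM MG-132 defined full response.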

[1] = measured here: control luc red channel unless noted

With `Cc1cccc(N(C)C(=O)CCNS(=O)(=O)c2ccc3c(c2)CCN3C(=O)C2CC2)c1` the AC50 [1] was 0.0501 µM [falling, full curve, poor fit].
In the case of `Cn1ncc2c(Nc3cccc(F)c3)ncnc21`, the AC50 [1] is reported as 25.1 µM [rising, partial curve].
In the case of `COC(=O)CCn1cnc2onc(-c3cc(F)cc(F)c3)c2c1=O`, the AC50 [1] is reported as 6.31 µM [falling, partial curve].
For `CC(C)Sc1ncc(Cl)c(C(=O)Nc2ccc(S(=O)(=O)N(C)c3ccccc3)cc2)n1`, the AC50 [1] was 20 µM [falling, single point].
For `O=C(CN1CCC(n2nnc3cc(F)ccc32)CC1)Nc1ccc2c(c1)CCC2`, the AC50 [1] was 25.1 µM [falling, single point].
With `O=C(Nc1c(C(=O)Nc2ccccc2F)oc2ccccc12)c1cc2ccccc2o1` the AC50 [1] was 0.158 µM [falling, partial curve].
With `COc1cc(NC(=O)CN2CCN(CC(=O)Nc3ccc(F)cc3)CC2)cc(OC)c1` the AC50 [1] was 31.6 µM [falling, single point].
In the case of `CCO/C(C)=C1\C(=O)N(CC)c2ccccc21`, the AC50 [1] is reported as 3.98 µM [rising, full curve, poor fit].
With `Cc1ccc(-n2ncc3c(N4CCC(Cc5ccccc5)CC4)ncnc32)cc1` the AC50 [1] was 15.8 µM [falling, partial curve].
In the case of `O=C(c1ccc2c(c1)N(Cc1ccccc1F)C(=O)c1ccccc1S2=O)N1CCOCC1` (centres undefined), the AC50 [1] is reported as 2.51 µM [rising, full curve].
For `Cc1ccc2c(c1)cc1c(=O)n(CC(=O)N3CCCCC3)nc(C)n12`, the AC50 [1] was 39.8 µM [falling, single point].
With `CN1/C(=C/C(=O)c2nc(S(C)(=O)=O)ncc2Cl)C(C)(C)c2ccccc21` the AC50 [1] was 5.01 µM [falling, full curve].
In the case of `CCc1ccc(C(=O)c2cn(CC(=O)Nc3ccc(C)c(C)c3)c3ccccc3c2=O)cc1`, the AC50 [1] is reported as 7.94 µM [falling, partial curve].
For `O=C(NCC1CCCO1)c1c[nH]c2ccc(S(=O)(=O)Nc3cccc(C(F)(F)F)c3)cc2c1=O` (centres undefined), the AC50 [1] was 39.8 µM [falling, single point].
In the case of `CCC(Sc1nc2nccnc2c(=O)n1Cc1ccc(OC)cc1)C(=O)NC1CCCCC1` (centres undefined), the AC50 [1] is reported as 39.8 µM [falling, single point].
In the case of `CC(C)(C)c1cc(CN2CCCC(O)C2)c(O)c(C(C)(C)C)c1` (centres undefined), the AC50 [1] is reported as 25.1 µM [falling, partial curve].
With `CCCc1cc(C(=O)N2CCN(c3ccccc3C)CC2)cs1` the AC50 [1] was 20 µM [falling, partial curve].
In the case of `CC(C)n1c(SCC(=O)Nc2ccc(F)cc2)nc2c(oc3ccccc32)c1=O`, the AC50 [1] is reported as 39.8 µM [falling, single point].
In the case of `Cc1cccc(NC(=O)c2cc(NC(=O)C3CCCCC3C(=O)O)ccc2N2CCCCC2)c1` (centres undefined), the AC50 [1] is reported as 25.1 µM [falling, single point].
In the case of `CCOc1ccc(C2C(=O)N(C3CCCCC3)CC(=O)N2C2CCCC2)cc1OC` (centres undefined), the AC50 [1] is reported as 0.00794 µM [rising, full curve].
For `COC(=O)c1[nH]c2ccc(C)cc2c1NC(=O)CN1CCc2cc(OC)c(OC)cc2C1`, the AC50 [1] was 12.6 µM [falling, partial curve].
For `COc1ccc(/C=C/C(=O)Nc2sc3c(c2C(N)=O)CCC(C)C3)cc1OC` (centres undefined), the AC50 [1] was 39.8 µM [falling, single point].
In the case of `N#CCCCSc1nnc(CSc2nc3ccccc3s2)n1-c1ccccc1`, the AC50 [1] is reported as 25.1 µM [falling, partial curve].
With `CCOC(=O)c1c(NC(=O)c2cc(C)on2)sc(C)c1C` the AC50 [1] was 12.6 µM [rising, partial curve, poor fit].
For `Cc1ccc(-n2ncc3c(N4CCN(C)CC4)ncnc32)cc1Cl`, the AC50 [1] was 2.51 µM [falling, full curve].
In the case of `CNC(=O)c1ccc(Nc2nnc(-c3ccc(C)c(S(=O)(=O)N4CCCCC4)c3)c3ccccc23)cc1`, the AC50 [1] is reported as 20 µM [falling, partial curve].
In the case of `CCc1cccc(NC(=O)CSc2ncccc2C(=O)Oc2ccccc2Cl)c1`, the AC50 [1] is reported as 12.6 µM [falling, partial curve].
In the case of `CNC(=O)c1c[nH]c2ccc(S(=O)(=O)Nc3cccc(Cl)c3C)cc2c1=O`, the AC50 (measured here: IkB-luc green channel) is reported as 7.94 µM [rising, partial curve] and the AC50 (measured here: control luc red channel) is reported as 3.98 µM [falling, full curve, poor fit].
With `Cc1cc(C)cc(OCc2ccc(C(=O)Nc3ccccc3F)o2)c1` the AC50 [1] was 3.98 µM [falling, full curve, poor fit].
For `NCCCCCc1nnc(SCC(=O)c2ccc(Cl)cc2)o1`, the AC50 [1] was 3.16 µM [falling, full curve].
For `COc1ccc(CNC(=O)CCC(=O)N2CC3CCCN3c3ccccc32)c(OC)c1` (centres undefined), the AC50 [1] was 0.398 µM [falling, partial curve].
With `Cc1ccc(C2=CC(c3c(F)cccc3Cl)n3ncnc3N2)cc1C` (centres undefined) the AC50 [1] was 15.8 µM [falling, single point].
In the case of `CC(=O)Nc1cc(-c2nc3ccccc3s2)ccc1C`, the AC50 [1] is reported as 1.26 µM [rising, partial curve, poor fit].
For `Cc1cccc(N(CC(=O)NCc2ccc3c(c2)OCO3)C(=O)CCC(=O)Nc2ccccn2)c1`, the AC50 [1] was 31.6 µM [falling, partial curve].
For `CCn1c(-c2ccc(S(=O)(=O)N3CCOCC3)cc2)csc1=Nc1ccc(C)c(Cl)c1`, the AC50 [1] was 7.94 µM [falling, partial curve].
With `COc1ccccc1N(CC(=O)NC1CCCCC1)C(=O)CCC(=O)Nc1ccccn1` the AC50 [1] was 10 µM [falling, partial curve].
In the case of `CCOC(=O)c1ccc(CN(Cc2ccccc2C)S(=O)(=O)c2ccc(C(C)(C)C)cc2)cc1`, the AC50 [1] is reported as 3.98 µM [falling, partial curve].
For `COc1cccc(C2C(C(=O)Nc3ccccc3)=C(C)Nc3nc(-c4ccccc4)nn32)c1OC` (centres undefined), the AC50 [1] was 25.1 µM [falling, partial curve].
With `Cc1cccc(-c2noc(-c3ccc(N4CCN(C)CC4)c([N+](=O)[O-])c3)n2)c1` the AC50 [1] was 15.8 µM [falling, partial curve].
For `COc1ccc(C)cc1NC(=O)c1ccc2c(c1)CCN2S(=O)(=O)c1ccc(Cl)cc1`, the AC50 [1] was 0.794 µM [falling, partial curve].
For `O=C(Nc1nccs1)c1ccc(Cl)c(S(=O)(=O)N2CCCCC2)c1`, the AC50 [1] was 15.8 µM [falling, partial curve].
For `COc1ccc(CNc2nc3c(c(=O)n(C)c(=O)n3C)n2Cc2ccccc2Cl)cc1`, the AC50 [1] was 31.6 µM [falling, single point].
For `Cc1cc(NC(=O)C(C)C)ncc1NC(=O)c1cccc(F)c1`, the AC50 [1] was 6.31 µM [rising, single point].
For `COc1ccc(-c2noc(-c3ccc(N4CCCCC4C)c([N+](=O)[O-])c3)n2)cc1OC` (centres undefined), the AC50 [1] was 1.26 µM [falling, full curve].
For `Cn1c(CSCc2ccccc2Cl)nnc1SCC(=O)Nc1nccs1`, the AC50 [1] was 10 µM [falling, partial curve].
In the case of `Cc1cc(-n2[nH]c(C)c(C)c2=O)nc(-c2ccccc2O)n1`, the AC50 [1] is reported as 15.8 µM [falling, partial curve].
In the case of `OCc1nc2ccccc2n1CC(O)Cn1ccc2ccccc21` (centres undefined), the AC50 [1] is reported as 12.6 µM [falling, partial curve].
For `CCOC(=O)N1CCc2c(sc(NCc3cccc(F)c3)c2C(=O)Nc2ccc(OC)cc2)C1`, the AC50 [1] was 0.2 µM [rising, full curve].
With `Cc1ccc(CNc2nc3ccc(Cl)cc3n3nnnc23)cc1` the AC50 [1] was 25.1 µM [falling, partial curve, poor fit].
In the case of `Cc1cc(-c2ccc(C)c(S(=O)(=O)Nc3ccccn3)c2)on1`, the AC50 [1] is reported as 10 µM [rising, partial curve].
For `COc1ccc(N(Cc2cccs2)C(=O)COc2cccc(C)c2C)cc1`, the AC50 [1] was 12.6 µM [falling, partial curve].
For `O=C1CC(c2ccc3c(c2)OCO3)c2cc3c(cc2N1)OCO3` (centres undefined), the AC50 [1] was 15.8 µM [falling, partial curve].
With `CCOc1ccc(-n2ccnc2SCC(=O)Nc2cccc3ccccc23)cc1` the AC50 [1] was 39.8 µM [falling, single point].
With `Cc1cccc(CC(=O)N2CC(=O)Nc3ccc(C)cc3C2c2ccc(F)cc2)c1` (centres undefined) the AC50 [1] was 15.8 µM [falling, partial curve].
For `COc1ccc(N2C(=O)CSC23C(=O)N(Cc2cccc(C(F)(F)F)c2)c2ccccc23)cc1` (centres undefined), the AC50 [1] was 25.1 µM [falling, single point].
For `Cc1ccc(Nc2c3c(nc4nc(-c5cccs5)nn24)CCCC3)cc1F`, the AC50 [1] was 39.8 µM [falling, single point].
With `Cc1oc(-c2ccc(Cl)cc2)nc1CS(=O)CC(=O)NCCc1ccccc1` (centres undefined) the AC50 [1] was 39.8 µM [falling, single point].
For `Oc1ccc(Cl)cc1Cc1cc(Cl)cc(Cc2cc(Cl)ccc2O)c1O`, the AC50 [1] was 3.16 µM [falling, partial curve].
In the case of `Cc1ccc(S(=O)(=O)c2nc(-c3cccs3)oc2SCC(=O)Nc2cc(C)cc(C)c2)cc1`, the AC50 [1] is reported as 10 µM [falling, partial curve].
With `CCOC(=O)c1ccccc1NC1c2ccccc2C(=O)N1C1CCN(C(=O)OCC)CC1` (centres undefined) the AC50 [1] was 25.1 µM [falling, partial curve].
For `COc1ccccc1-c1nc(C#N)c(N2CCN(Cc3ccccc3)CC2)o1`, the AC50 [1] was 25.1 µM [falling, partial curve].
For `Cc1cccc(Cn2c(=O)n(CCCC(=O)NCc3ccccc3Cl)c(=O)c3ccccc32)c1`, the AC50 [1] was 10 µM [falling, partial curve].
For `Cc1ccc(NC(=O)C2CCC(CNS(=O)(=O)c3ccc4c(c3)CCCC(=O)N4)CC2)cc1F` (centres undefined), the AC50 [1] was 20 µM [falling, single point].
